Results: patent publication US20220363754A1
No constants are given. Whether binding was seen depends on the method and setting. Some binding calls cover weakened binding; strength is not graded here. For some assays here: Where a sequence is shown, tags or fusion partners need not be part of it.

T1: recombinant protein hTIGIT-ECD-mFC (human; mouse) (UniProt Q495A1)
T1 sequence (looked up): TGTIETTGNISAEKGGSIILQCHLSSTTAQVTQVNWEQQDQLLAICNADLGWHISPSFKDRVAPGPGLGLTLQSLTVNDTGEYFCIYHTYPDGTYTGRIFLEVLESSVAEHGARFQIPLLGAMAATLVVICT

T2: hTIGIT-Fc (human) (UniProt Q495A1)
T2 sequence (looked up): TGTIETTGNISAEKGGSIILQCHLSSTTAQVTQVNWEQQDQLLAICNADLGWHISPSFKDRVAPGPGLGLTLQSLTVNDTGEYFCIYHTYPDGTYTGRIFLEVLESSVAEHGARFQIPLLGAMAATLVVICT

B1: humanized antibody hu69 (antibody, V domains shown)
VH: QVQLVQSGAEVKKPGASVKVSCKASGYTFTNYWILWIRQAPGQGLEWMGDIYPGGHYTNYNEKFQGRVTLTADTSSSTAYMELSRLRSDDTAVYYCTRYYGPYAMDYWGQGTLVTVSS
VL: DIVMTQSPLSLPVTPGEPASISCRSSQSLLYNSNQKNYLAWYLQKPGQSPQLLIYWASTGESGVPDRFSGSGSGTDFTLKISRVEAEDVGVYYCQQYYSYPFTFGQGTKLEIK
B2: humanized antibody hu81 (antibody, V domains shown)
VH: QVQLVQSGAEVKKPGASVKVSCKASGYTFTNYWILWIRQAPGQGLEWMGDIYPGGHYTNYNEKLQGRVTLTADTSSSTAYMELRSLRSDDTAVYYCTRYYGPYAMDYWGQGTLVTVSS
VL: DIVMTQSPLSLPVTPGEPASISCRSSQSLLYNSNQKNYLAWYLQKPGQSPQLLIYWASTGESGVPDRFSGSGSGTDFTLKISRVEAEDVGVYYCQQYYSYPFTFGQGTKVEIK
B3: humanized antibody hu3 (antibody, human IgG4 S228P, kappa, V domains shown)
VH: QVQLVQSGAEVKKPGASVKVSCKTSGYAFTEYTMHWVRQAPGQGLEWMGGINPNTGGTTYNQKFQGRVTLTVDKSSSTAYMELSRLRSDDTVVYYCAKLLRLMYYFDYWGQGTLVTVSS
VL: DIVMTQSPDSLAVSLGERATINCKASQDVRTAVAWYQQKPGQPPKLLIYSASYRYTGVPDRFSGSGSGTDFTLTISSLQAEDVAVYYCHQHYITPWTFGGGTKVEIKR
B4: humanized antibody hu20 (antibody, human IgG4 S228P, kappa, V domains shown)
VH: QVQLVQSGAEVKKPGASVKVSCKTSGYAFTEYTMHWVRQAPGKGLEWMGGINPNTGGTTYNQKFQGRVTLTVDKSSSTAYMELSSLRSEDTVVYYCAKLLRLMYYFDYWGQGTLVTVSS
VL: DIQMTQSPSSLSASVGDRVTITCQASQDVRTAVAWYQQKPGKAPKLLIYSASYRYTGVPSRFSGSGSGTDFTFTISSLQPEDIATYYCHQHYITPWTFGGGTKVEIKR
B5: humanized antibody hu62 (antibody, V domains shown)
VH: QVQLVQSGAEVKKPGASVKVSCKASGYTFTNYWILWIRQAPGQGLEWMGDIYPGGHYTNYNEKFQGRVTLTADTSSSTAYMELSSLRSEDTAVYYCTRYYGPYAMDYWGQGTLVTVSS
VL: DIQMTQSPSSLSASVGDRVTITCRSSQSLLYNSNQKNYLAWYQQKPGKAPKLLIYWASTGESGVPSRFSGSGSGTDFTLTISSLQPEDFATYYCQQYYSYPFTFGQGTKVEIK

Key:
[1] = molecular target: T1, recombinant protein hTIGIT-ECD-mFC (human; mouse); assay: ELISA, human TIGIT-ECD-mFc coated at 0.5 ug/mL
[2] = molecular target: Cyno TIGIT-Fc (cynomolgus monkey); assay: SPR (Biacore T200)
hTIGIT-Fc (human) = molecular target: T2, hTIGIT-Fc (human); assay: SPR (Biacore T200)

Row | Binder | binding [1] | binding [2] | binding (hTIGIT-Fc (human))
1 | B1 | binds |  | 
2 | B2 | binds |  | 
3 | B3 | binds | binds | binds
4 | B4 |  | binds | binds
5 | B5 | binds |  | 
